The other results are listed elsewhere or left out.
Tests used:
Test in all cases: glycan array binding signal (z-score within array); higher = stronger binding
Settings in all cases: glycan notation: IUPAC condensed, linker removed
Gal3S(b1-4)Glc = molecular target: Gal3S(b1-4)Glc
How it was run: (§1)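 From the Consortium for Functional Glycomics database, 3228 arrays were curated, keeping only those whose protein sequence was available. Binding is given as a within-array Z-score averaged across arrays sharing a protein sequence and across linkers. Negative Z-scores can be read as non-binding.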

Gal3S(b1-4)Glc6S = molecular target: Gal3S(b1-4)Glc6S
How it was run: as §1

Gal3S(b1-4)GlcNAc = molecular target: Gal3S(b1-4)GlcNAc
How it was run: as §1

[1] = molecular target: Gal3S(b1-4)[Fuc(a1-3)]Glc6S
How it was run: as §1

[2] = molecular target: Gal3S(b1-4)[Fuc(a1-3)]GlcNAc
How it was run: as §1

[3] = molecular target: Gal3S(b1-4)[Fuc(a1-3)]GlcNAc6S
How it was run: as §1

Gal3S4S(b1-4)GlcNAc = molecular target: Gal3S4S(b1-4)GlcNAc
How it was run: as §1

Gal3S6S(b1-4)GlcNAc = molecular target: Gal3S6S(b1-4)GlcNAc
How it was run: as §1

Gal3S6S(b1-4)GlcNAc6S = molecular target: Gal3S6S(b1-4)GlcNAc6S
How it was run: as §1

Gal4S(b1-4)GlcNAc = molecular target: Gal4S(b1-4)GlcNAc
How it was run: as §1

Gal4S6S(b1-4)GlcNAc = molecular target: Gal4S6S(b1-4)GlcNAc
How it was run: as §1

Gal6P(b1-4)GlcNAc = molecular target: Gal6P(b1-4)GlcNAc
How it was run: as §1

Gal6S(b1-3)GlcNAc = molecular target: Gal6S(b1-3)GlcNAc
How it was run: as §1

Gal6S(b1-3)GlcNAc6S = molecular target: Gal6S(b1-3)GlcNAc6S
How it was run: as §1

Gal6S(b1-4)Glc = molecular target: Gal6S(b1-4)Glc
How it was run: as §1

Gal6S(b1-4)Glc6S = molecular target: Gal6S(b1-4)Glc6S
How it was run: as §1

Gal6S(b1-4)GlcNAc = molecular target: Gal6S(b1-4)GlcNAc
How it was run: as §1

Gal6S(b1-4)GlcNAc6S = molecular target: Gal6S(b1-4)GlcNAc6S
How it was run: as §1

GalNAc(a1-3)Gal = molecular target: GalNAc(a1-3)Gal
How it was run: as §1

GalNAc(a1-3)GalNAc = molecular target: GalNAc(a1-3)GalNAc
How it was run: as §1

[4] = molecular target: GalNAc(a1-3)GalNAc(b1-3)Gal(a1-4)Gal(b1-4)Glc
How it was run: as §1

[5] = molecular target: GalNAc(a1-3)GalNAc(b1-3)Gal(a1-4)Gal(b1-4)GlcNAc
How it was run: as §1

GalNAc(b1-3)Gal = molecular target: GalNAc(b1-3)Gal
How it was run: as §1

[6] = molecular target: GalNAc(b1-3)Gal(a1-4)Gal(b1-4)GlcNAc
How it was run: as §1

[7] = molecular target: GalNAc(b1-3)Gal(a1-4)Gal(b1-4)GlcNAc(b1-3)Gal(b1-4)Glc
How it was run: as §1

[8] = molecular target: GalNAc(b1-3)Gal(a1-6)Gal(b1-4)Glc
How it was run: as §1

GalNAc(b1-3)GalNAc = molecular target: GalNAc(b1-3)GalNAc
How it was run: as §1

GalNAc(b1-3)GlcNAc = molecular target: GalNAc(b1-3)GlcNAc
How it was run: as §1

GalNAc(b1-4)Gal(b1-4)Glc = molecular target: GalNAc(b1-4)Gal(b1-4)Glc
How it was run: as §1

GalNAc(b1-4)GlcNAc = molecular target: GalNAc(b1-4)GlcNAc
How it was run: as §1

[9] = molecular target: GalNAc(b1-4)GlcNAc(b1-2)Man
How it was run: as §1

[10] = molecular target: GalNAc(b1-4)GlcNAc(b1-2)Man(a1-3)[GalNAc(b1-4)GlcNAc(b1-2)Man(a1-6)]Man(b1-4)GlcNAc(b1-4)GlcNAc
How it was run: as §1

[11] = molecular target: GalNAc(b1-4)GlcNAc(b1-3)GalNAc(b1-4)GlcNAc
How it was run: as §1

GalNAc(b1-4)GlcNAc6S = molecular target: GalNAc(b1-4)GlcNAc6S
How it was run: as §1

GalNAc(b1-6)GalNAc = molecular target: GalNAc(b1-6)GalNAc
How it was run: as §1

GalNAc3S(b1-4)GlcNAc = molecular target: GalNAc3S(b1-4)GlcNAc
How it was run: as §1

GalNAc3S(b1-4)GlcNAc3S = molecular target: GalNAc3S(b1-4)GlcNAc3S
How it was run: as §1

[12] = molecular target: GalNAc3S(b1-4)[Fuc(a1-3)]GlcNAc
How it was run: as §1

GalNAc4S6S(b1-4)GlcNAc = molecular target: GalNAc4S6S(b1-4)GlcNAc
How it was run: as §1

GalNAc6S(b1-4)GlcNAc = molecular target: GalNAc6S(b1-4)GlcNAc
How it was run: as §1

Glc(a1-4)Glc = molecular target: Glc(a1-4)Glc
How it was run: as §1

[13] = molecular target: Glc(a1-4)Glc(a1-4)Glc(a1-4)Glc
How it was run: as §1

Glc(a1-6)Glc(a1-6)Glc = molecular target: Glc(a1-6)Glc(a1-6)Glc
How it was run: as §1

[14] = molecular target: Glc(a1-6)Glc(a1-6)Glc(a1-6)Glc
How it was run: as §1

Glc(b1-4)Glc = molecular target: Glc(b1-4)Glc
How it was run: as §1

B1: Pwp6 (Candida glabrata) (protein)
chain: MGSSHHHHHHSSGLVPRGSHMASANLPKLTNICQIPDNVKKTSGFKGEIRRIGLFPPGGDYTYLLKFPSTGSTASDTISLTTKPQLSTSGWFPSLFGHTYFIKADLLVYMVAYFVPTETGEYTFKLVNSDDAAVMYVGNPSAFPCGSIDTWPEPRKEDINVCDKISASTKLYMEKGLAYPVRLVWYNGGGDGQFNAQFIDPSGTTHTDWNGYVWQYDACTDCDYK
In the case of B1, the “glycan array binding signal (z-score)” value (Gal3S(b1-4)Glc) is reported as -0.252, the “glycan array binding signal (z-score)” value (Gal3S(b1-4)Glc6S) is reported as -0.421 and the “glycan array binding signal (z-score)” value (Gal3S(b1-4)GlcNAc) is reported as -0.435. The “glycan array binding signal (z-score)” value [1] was 0.112, the “glycan array binding signal (z-score)” value [2] was -0.708 and the “glycan array binding signal (z-score)” value [3] was -0.311. For the same binder, the “glycan array binding signal (z-score)” value (Gal3S4S(b1-4)GlcNAc) was -0.287, the “glycan array binding signal (z-score)” value (Gal3S6S(b1-4)GlcNAc) was -0.372 and the “glycan array binding signal (z-score)” value (Gal3S6S(b1-4)GlcNAc6S) was -0.287. The “glycan array binding signal (z-score)” value (Gal4S(b1-4)GlcNAc) was -0.746, the “glycan array binding signal (z-score)” value (Gal4S6S(b1-4)GlcNAc) was -0.534 and the “glycan array binding signal (z-score)” value (Gal6P(b1-4)GlcNAc) was -0.54. For the same binder, the “glycan array binding signal (z-score)” value (Gal6S(b1-3)GlcNAc) was -0.677, the “glycan array binding signal (z-score)” value (Gal6S(b1-3)GlcNAc6S) was -0.712 and the “glycan array binding signal (z-score)” value (Gal6S(b1-4)Glc) was -0.624. For the same binder, the “glycan array binding signal (z-score)” value (Gal6S(b1-4)Glc6S) was -0.337, the “glycan array binding signal (z-score)” value (Gal6S(b1-4)GlcNAc) was -0.604 and the “glycan array binding signal (z-score)” value (Gal6S(b1-4)GlcNAc6S) was -0.642. For the same binder, the “glycan array binding signal (z-score)” value (GalNAc(a1-3)Gal) was -0.686, the “glycan array binding signal (z-score)” value (GalNAc(a1-3)GalNAc) was -0.809 and the “glycan array binding signal (z-score)” value [4] was -0.294. For the same binder, the “glycan array binding signal (z-score)” value [5] was 0.224, the “glycan array binding signal (z-score)” value (GalNAc(b1-3)Gal) was -0.741 and the “glycan array binding signal (z-score)” value [6] was -0.705. For the same binder, the “glycan array binding signal (z-score)” value [7] was 0.152, the “glycan array binding signal (z-score)” value [8] was -0.563 and the “glycan array binding signal (z-score)” value (GalNAc(b1-3)GalNAc) was -0.574. The “glycan array binding signal (z-score)” value (GalNAc(b1-3)GlcNAc) was -0.654, the “glycan array binding signal (z-score)” value (GalNAc(b1-4)Gal(b1-4)Glc) was -0.167 and the “glycan array binding signal (z-score)” value (GalNAc(b1-4)GlcNAc) was -0.462. The “glycan array binding signal (z-score)” value [9] was -0.356, the “glycan array binding signal (z-score)” value [10] was 2 and the “glycan array binding signal (z-score)” value [11] was -0.059. The “glycan array binding signal (z-score)” value (GalNAc(b1-4)GlcNAc6S) was -0.57, the “glycan array binding signal (z-score)” value (GalNAc(b1-6)GalNAc) was -0.446 and the “glycan array binding signal (z-score)” value (GalNAc3S(b1-4)GlcNAc) was -0.738. The “glycan array binding signal (z-score)” value (GalNAc3S(b1-4)GlcNAc3S) was 2.33, the “glycan array binding signal (z-score)” value [12] was -0.543 and the “glycan array binding signal (z-score)” value (GalNAc4S6S(b1-4)GlcNAc) was 2.08. For the same binder, the “glycan array binding signal (z-score)” value (GalNAc6S(b1-4)GlcNAc) was 0.087, the “glycan array binding signal (z-score)” value (Glc(a1-4)Glc) was -0.583 and the “glycan array binding signal (z-score)” value [13] was -0.556. The “glycan array binding signal (z-score)” value (Glc(a1-6)Glc(a1-6)Glc) was -0.335, the “glycan array binding signal (z-score)” value [14] was -0.252 and the “glycan array binding signal (z-score)” value (Glc(b1-4)Glc) was -0.56.

Source: the supplement of paper PMC8728848
